No end group written: not given here.
How the values were obtained:
[1] = system: E. coli DH5α; settings: LD50/MIC; LD50 of 128 used where LD50 above measured range; parentheses: MTC established but no LD50
Procedure: (§1) The minimum inhibitory concentration (MIC) of the peptides was carried out by way of example against gram(−) E. coli DH5α (and gram(+) Staphylococcus xylosus (both Deutsche Sammlung von Mikroorganismen and Zellkulturen, DSMZ) in a standardized microdilution method according to the general guidelines of the CLSI (Clinical and Laboratory Standards Institute 2006) and EUCAST (European Committee for Antimicrobial Susceptibility Testing of the European Society of Clinical Microbiology and Infectious Diseases 2003) with slight adaptations to the investigation of cationic antimicrobial peptides (Wiegand et al. 2008). The bacteria cells were cultivated in Mueller-Hinton-Boullion (MHB) to an optical density of 0.4 to 0.6 at 600 nm wavelength, corresponding to about 4·10^8 bacteria per ml. Then, the bacteria cultures were diluted to a bacteria concentration of about 1·10^5 bacteria per ml in sterile MHB. Using the peptides, series of 2-fold dilutions starting at 128 μM to the smallest dilution of 0.5 μM in MHB were prepared. The peptide dilutions were mixed with the dilute bacteria cultures in a […] in the chambers of a 96-well polypropylene microtiter plate (Starlab, Hamburg, Germany), so that the peptides were present in an end concentration between 64 μM and 0.25 μM at a bacteria concentration of 5·10^4 bacteria/ml. Sterile MHB served as negative control, and the positive control used as the corresponding bacteria concentration in MHB without the addition of peptide. The microtiter plates were incubated for 18 hours at 37° C. with shaking at 120 rpm in a climatically controlled chamber. After the incubation, the bacteria concentration was determined by renewed absorption measurement at a wavelength of 600 nm.

[2] = system: Staphylococcus xylosus; settings: LD50/MIC; LD50 of 128 used where LD50 above measured range; parentheses: MTC established but no LD50
Procedure: as §1

| Substance | Therapeutic ratio E. coli [1] | Therapeutic ratio S. xylosus [2] |
| --- | --- | --- |
| MPRRRRSSSRPVRRRRRPRVSRRRRRRGGRRR (Protamine) | (16) | – |
| ILPWKWPWWPWRR [Indolicidin] | 32 | 4 |
| KRKRKILILIKRK-OH [N1] | 4.5 | – |
| GRFKRFRKKFKKLFKKLSPVIPLLHLG-OH [BMAP-27] | 1.80 | 0.9 |
| KILILIKRK-OH [N4] | 1.8 | – |

— patent US10556926B2, “Synthetic artificial peptides with antimicrobial effect” (priority 2014, dated 2020)
